No constants are given. Whether binding was seen depends on the method and setting. In cells and extracts the contact can be indirect.
Biological target: GFP‐TBC1D14 224–669 (UniProt Q9P2M4)
Assay: co-IP; GFP‐Trap IP from lysates of cells (HEK293A) expressing GFP or GFP fusions; immunoblot for endogenous partners

Sequences of proteins named here, by UniProt entry; tags and fusion partners are left off. A change or cut given only in a name is not applied to a line headed by its entry.
UniProt Q9P2M4: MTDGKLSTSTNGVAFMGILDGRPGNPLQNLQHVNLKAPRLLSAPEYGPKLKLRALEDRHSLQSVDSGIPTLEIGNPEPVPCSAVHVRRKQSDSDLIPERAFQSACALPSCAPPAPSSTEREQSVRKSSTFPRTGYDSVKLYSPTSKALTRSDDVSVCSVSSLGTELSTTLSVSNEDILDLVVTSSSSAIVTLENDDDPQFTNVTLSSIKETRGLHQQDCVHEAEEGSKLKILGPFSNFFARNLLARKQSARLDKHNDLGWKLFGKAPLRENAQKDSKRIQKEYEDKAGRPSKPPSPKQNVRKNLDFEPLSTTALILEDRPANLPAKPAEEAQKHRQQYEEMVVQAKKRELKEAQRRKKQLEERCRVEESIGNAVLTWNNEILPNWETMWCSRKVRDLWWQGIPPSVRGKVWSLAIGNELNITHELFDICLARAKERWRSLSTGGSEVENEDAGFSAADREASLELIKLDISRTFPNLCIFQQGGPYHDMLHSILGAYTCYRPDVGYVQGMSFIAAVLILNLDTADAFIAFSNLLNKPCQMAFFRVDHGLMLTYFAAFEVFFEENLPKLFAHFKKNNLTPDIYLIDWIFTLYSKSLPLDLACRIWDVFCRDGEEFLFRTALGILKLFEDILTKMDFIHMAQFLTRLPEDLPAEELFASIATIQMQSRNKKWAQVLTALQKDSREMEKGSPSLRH
UniProt Q8WVT3: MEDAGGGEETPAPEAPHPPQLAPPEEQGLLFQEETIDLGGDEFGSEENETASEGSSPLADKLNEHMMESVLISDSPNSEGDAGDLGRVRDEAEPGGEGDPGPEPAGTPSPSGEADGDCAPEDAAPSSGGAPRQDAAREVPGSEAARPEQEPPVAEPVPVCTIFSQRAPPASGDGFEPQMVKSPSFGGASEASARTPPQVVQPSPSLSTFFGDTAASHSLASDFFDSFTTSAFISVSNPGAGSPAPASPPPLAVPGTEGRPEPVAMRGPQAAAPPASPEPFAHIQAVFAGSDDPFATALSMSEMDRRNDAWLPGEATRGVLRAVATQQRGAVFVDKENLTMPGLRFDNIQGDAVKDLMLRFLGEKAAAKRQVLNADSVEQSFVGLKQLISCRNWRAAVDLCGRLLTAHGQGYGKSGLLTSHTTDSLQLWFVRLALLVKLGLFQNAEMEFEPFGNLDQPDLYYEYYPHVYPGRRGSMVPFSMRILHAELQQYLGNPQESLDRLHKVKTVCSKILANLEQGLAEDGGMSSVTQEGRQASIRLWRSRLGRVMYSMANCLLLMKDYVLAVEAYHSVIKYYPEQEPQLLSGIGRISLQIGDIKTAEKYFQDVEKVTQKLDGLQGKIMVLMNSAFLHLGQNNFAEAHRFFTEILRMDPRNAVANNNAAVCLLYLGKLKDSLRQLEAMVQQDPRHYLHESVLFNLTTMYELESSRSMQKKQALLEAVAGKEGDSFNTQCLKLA
UniProt Q9Y296: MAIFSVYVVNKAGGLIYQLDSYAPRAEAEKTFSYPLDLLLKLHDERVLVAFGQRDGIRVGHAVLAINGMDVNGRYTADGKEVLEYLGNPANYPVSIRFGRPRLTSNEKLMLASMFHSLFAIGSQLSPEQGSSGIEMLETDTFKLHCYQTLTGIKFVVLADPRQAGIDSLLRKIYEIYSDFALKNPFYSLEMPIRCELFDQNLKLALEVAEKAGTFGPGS

| Substance | binding |
| --- | --- |
| TRAPPC12/TTC15 (from UniProt Q8WVT3 1-735) | no binding |
| TRAPPC4 (from UniProt Q9Y296 1-219) | no binding |
